{"source": "PubChem BioAssay AID1259254 (NCATS, 2017)", "test": "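Gene knock-downs that lead to re-replication, shown by excess G2 DNA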 (primary screen)", "cell system": "human HCT116 colorectal cancer cells", "knock-down reagent": "single siRNA against human genes", "duration": "3 days", "measurement": "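Imaged Hoechst DNA stain sorts each cell into a cycle phase by DNA amount; per plate, G2 fraction set to 0% for non-targeting and 100% for GMNN siRNA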", "direction": "G2 robust z-score and G2 cells, % of GMNN control: higher = more G2 cells, more excess DNA replication", "call rule": "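An siRNA counts as active if its G2 robust z-score lies at least 5 MADs above the screen median; here such calls match roughly 38% of GMNN control or more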", "note": "The deposit covers about 59,000 reagents; this is a random part of them. Of all reagents, about 1,550 (2.6%) were called active. 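G2 share is only a proxy for re-replication; each gene was hit by three separate siRNAs, and active genes were retested.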 A number with no mark means an inactive call. Reagents against one gene are numbered here. Not all columns of the deposit are shown. Not stated in the record: the amount of reagent."}
{"gene knocked down": "C3orf52 (GeneID 79669)", "siRNA no.": 1, "G2 robust z-score": -1.03, "G2 cells, % of GMNN control": -4.26}
{"gene knocked down": "C3orf52 (GeneID 79669)", "siRNA no.": 2, "G2 robust z-score": 0.52, "G2 cells, % of GMNN control": 6.63}
{"gene knocked down": "C3orf52 (GeneID 79669)", "siRNA no.": 3, "G2 robust z-score": 0.477, "G2 cells, % of GMNN control": 6.32}
{"gene knocked down": "ACOX2 (GeneID 8309)", "siRNA no.": 1, "G2 robust z-score": -0.79, "G2 cells, % of GMNN control": -2.59}
{"gene knocked down": "ACOX2 (GeneID 8309)", "siRNA no.": 2, "G2 robust z-score": 0.197, "G2 cells, % of GMNN control": 4.35}
{"gene knocked down": "ACOX2 (GeneID 8309)", "siRNA no.": 3, "G2 robust z-score": 1.06, "G2 cells, % of GMNN control": 10.4}
{"gene knocked down": "BOLA3 (GeneID 388962)", "siRNA no.": 1, "G2 robust z-score": -0.421, "G2 cells, % of GMNN control": 0.00333}
{"gene knocked down": "BOLA3 (GeneID 388962)", "siRNA no.": 2, "G2 robust z-score": -0.326, "G2 cells, % of GMNN control": 0.673}
{"gene knocked down": "BOLA3 (GeneID 388962)", "siRNA no.": 3, "G2 robust z-score": -0.933, "G2 cells, % of GMNN control": -3.6}
{"gene knocked down": "ATRNL1 (GeneID 26033)", "siRNA no.": 1, "G2 robust z-score": -0.743, "G2 cells, % of GMNN control": -2.26}
{"gene knocked down": "ATRNL1 (GeneID 26033)", "siRNA no.": 2, "G2 robust z-score": 0.418, "G2 cells, % of GMNN control": 5.91}
{"gene knocked down": "ATRNL1 (GeneID 26033)", "siRNA no.": 3, "G2 robust z-score": 1.1, "G2 cells, % of GMNN control": 10.7}
{"gene knocked down": "ETV3 (GeneID 2117)", "siRNA no.": 1, "G2 robust z-score": -0.528, "G2 cells, % of GMNN control": -0.75}
{"gene knocked down": "ETV3 (GeneID 2117)", "siRNA no.": 2, "G2 robust z-score": 0.729, "G2 cells, % of GMNN control": 8.1}
{"gene knocked down": "ETV3 (GeneID 2117)", "siRNA no.": 3, "G2 robust z-score": 4.07, "G2 cells, % of GMNN control": 31.6}
{"gene knocked down": "GPR152 (GeneID 390212)", "siRNA no.": 1, "G2 robust z-score": 4.17, "G2 cells, % of GMNN control": 32.3}
{"gene knocked down": "GPR152 (GeneID 390212)", "siRNA no.": 2, "G2 robust z-score": -0.17, "G2 cells, % of GMNN control": 1.77}
{"gene knocked down": "GPR152 (GeneID 390212)", "siRNA no.": 3, "G2 robust z-score": 0.269, "G2 cells, % of GMNN control": 4.86}
{"gene knocked down": "IL31 (GeneID 386653)", "siRNA no.": 1, "G2 robust z-score": 2.35, "G2 cells, % of GMNN control": 19.5}
{"gene knocked down": "IL31 (GeneID 386653)", "siRNA no.": 2, "G2 robust z-score": 0.0311, "G2 cells, % of GMNN control": 3.19}
{"gene knocked down": "IL31 (GeneID 386653)", "siRNA no.": 3, "G2 robust z-score": -0.459, "G2 cells, % of GMNN control": -0.261}
{"gene knocked down": "GPR174 (GeneID 84636)", "siRNA no.": 1, "G2 robust z-score": -0.563, "G2 cells, % of GMNN control": -0.993}
{"gene knocked down": "GPR174 (GeneID 84636)", "siRNA no.": 2, "G2 robust z-score": -0.451, "G2 cells, % of GMNN control": -0.204}
{"gene knocked down": "GPR174 (GeneID 84636)", "siRNA no.": 3, "G2 robust z-score": -0.354, "G2 cells, % of GMNN control": 0.474}
{"gene knocked down": "ZSWIM6 (GeneID 57688)", "siRNA no.": 1, "G2 robust z-score": 0.363, "G2 cells, % of GMNN control": 5.52}
{"gene knocked down": "ZSWIM6 (GeneID 57688)", "siRNA no.": 2, "G2 robust z-score": -0.138, "G2 cells, % of GMNN control": 1.99}
{"gene knocked down": "ZSWIM6 (GeneID 57688)", "siRNA no.": 3, "G2 robust z-score": -0.807, "G2 cells, % of GMNN control": -2.71}
{"gene knocked down": "SEPTIN7P14 (GeneID 645513)", "siRNA no.": 1, "G2 robust z-score": "5.37 (active)", "G2 cells, % of GMNN control": 40.8}
{"gene knocked down": "SEPTIN7P14 (GeneID 645513)", "siRNA no.": 2, "G2 robust z-score": 0.18, "G2 cells, % of GMNN control": 4.23}
{"gene knocked down": "SEPTIN7P14 (GeneID 645513)", "siRNA no.": 3, "G2 robust z-score": -0.223, "G2 cells, % of GMNN control": 1.4}
